We go through 3 molecules from publication PMC4434891, “The Smc5-Smc6 heterodimer associates with DNA through several independent binding domains” (Scientific Reports, 2015).

These are yes or no findings as the source states them, for the method shown. In cells and extracts the contact can be indirect. Some binding calls cover weakened binding; strength is not graded here.

Holding throughout (assay): pull-down + SEC; sequential co-purification from bacterial lysate by the tag of each subunit: Ni-NTA (His9 on Smc5), then Strep-Tactin (Strep-TagII on Smc6), then Superose 6 or 12 in buffer C (25 mM potassium phosphate pH 8.0, 500 mM NaCl, 10% glycerol, 0.2% Tween 20, 2 mM 2-ME, 1 mM EDTA); fragments overexpressed in combination or individually
Assay [1] deals with T1, Smc5 HM (hinge medium; Smc5 residues 300-to-803) (UniProt Q08204).
T1 sequence: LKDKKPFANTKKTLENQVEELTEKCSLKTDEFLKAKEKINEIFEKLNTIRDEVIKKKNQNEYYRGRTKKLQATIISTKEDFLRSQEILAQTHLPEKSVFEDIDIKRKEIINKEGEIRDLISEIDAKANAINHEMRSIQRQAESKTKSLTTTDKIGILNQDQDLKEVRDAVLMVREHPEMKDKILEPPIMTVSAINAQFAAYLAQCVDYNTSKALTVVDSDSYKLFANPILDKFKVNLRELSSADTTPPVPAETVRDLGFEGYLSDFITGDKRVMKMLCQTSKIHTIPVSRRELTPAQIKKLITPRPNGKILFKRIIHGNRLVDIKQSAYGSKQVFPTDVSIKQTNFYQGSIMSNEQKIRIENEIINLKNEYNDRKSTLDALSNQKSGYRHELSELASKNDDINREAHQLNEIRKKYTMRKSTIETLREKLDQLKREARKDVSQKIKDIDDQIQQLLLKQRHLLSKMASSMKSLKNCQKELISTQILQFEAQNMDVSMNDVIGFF

Assay [2] deals with T2, Smc5 HL (hinge long; Smc5 residues 215-to-885) (UniProt Q08204).
T2 sequence: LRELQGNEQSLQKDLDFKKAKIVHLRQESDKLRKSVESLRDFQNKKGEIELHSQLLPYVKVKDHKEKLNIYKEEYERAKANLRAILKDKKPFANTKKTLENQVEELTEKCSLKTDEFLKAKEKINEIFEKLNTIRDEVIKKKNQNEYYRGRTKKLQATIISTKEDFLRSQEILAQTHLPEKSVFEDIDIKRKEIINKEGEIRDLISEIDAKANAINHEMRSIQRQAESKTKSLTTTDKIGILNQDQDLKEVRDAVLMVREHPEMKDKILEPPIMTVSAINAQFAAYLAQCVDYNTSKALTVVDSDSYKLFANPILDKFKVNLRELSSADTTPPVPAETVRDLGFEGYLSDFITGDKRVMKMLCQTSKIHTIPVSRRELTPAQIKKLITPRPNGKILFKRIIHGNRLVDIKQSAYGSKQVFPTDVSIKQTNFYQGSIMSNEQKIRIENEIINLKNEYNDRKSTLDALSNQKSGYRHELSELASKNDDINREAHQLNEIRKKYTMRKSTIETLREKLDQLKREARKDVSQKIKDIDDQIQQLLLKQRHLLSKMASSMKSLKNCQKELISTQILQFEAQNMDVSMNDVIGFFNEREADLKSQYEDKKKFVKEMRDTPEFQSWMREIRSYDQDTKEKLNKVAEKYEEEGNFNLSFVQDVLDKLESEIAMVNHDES

Assay [3] concerns the target T3, Smc5 HS (hinge short; Smc5 residues 428-to-675) (UniProt Q08204).
T3 sequence: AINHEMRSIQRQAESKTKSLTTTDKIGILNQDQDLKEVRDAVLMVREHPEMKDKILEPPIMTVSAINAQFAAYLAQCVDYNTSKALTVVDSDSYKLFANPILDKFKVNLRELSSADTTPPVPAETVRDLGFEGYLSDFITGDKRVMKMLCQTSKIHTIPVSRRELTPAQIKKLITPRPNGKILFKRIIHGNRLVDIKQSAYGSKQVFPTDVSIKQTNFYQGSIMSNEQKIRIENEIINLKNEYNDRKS

B1: Smc6 HM (hinge medium; Smc6 residues 350-to-868) (domain or fragment, UniProt Q12749 350-868)
chain: KIERYTSDGTTIEAQIDAKVIYVNEKDSEHQNARELLRDVKSRFEKEKSNQAEAQSNIDQGRKKVDALNKTIAHLEEELTKEMGGDKDQMRQELEQLEKANEKLREVNNSLVVSLQDVKNEERDIQHERESELRTISRSIQNKKVELQNIAKGNDTFLMNFDRNMDRLLRTIEQRKNEFETPAIGPLGSLVTIRKGFEKWTRSIQRAISSSLNAFVVSNPKDNRLFRDIMRSCGIRSNIPIVTYCLSQFDYSKGRAHGNYPTIVDALEFSKPEIECLFVDLSRIERIVLIEDKNEARNFLQRNPVNVNMALSLRDRRSGFQLSGGYRLDTVTYQDKIRLKVNSSSDNGTQYLKDLIEQETKELQNIRDRYEEKLSEVRSRLKEIDGRLKSTKNEMRKTNFRMTELKMNVGKVVDTGILNSKINERKNQEQAIASYEAAKEELGLKIEQIAQEAQPIKEQYDSTKLALVEAQDELQQLKEDINSRQSKIQKYKDDTIYYEDKKKVYLENIKKIEVNVAAL
Take B1: the binding result in assay [1] was “binds”.

B2: Smc6 HL (hinge long; Smc6 residues 260-to-970) (domain or fragment, UniProt Q12749 260-970)
chain: SAIHDSAQENMALHLENLKSLKAEYEDAKKLLRELNQTSDLNERKMLLQAKSLWIDVAHNTDACKNLENEISGIQQKVDEVTEKIRNRQEKIERYTSDGTTIEAQIDAKVIYVNEKDSEHQNARELLRDVKSRFEKEKSNQAEAQSNIDQGRKKVDALNKTIAHLEEELTKEMGGDKDQMRQELEQLEKANEKLREVNNSLVVSLQDVKNEERDIQHERESELRTISRSIQNKKVELQNIAKGNDTFLMNFDRNMDRLLRTIEQRKNEFETPAIGPLGSLVTIRKGFEKWTRSIQRAISSSLNAFVVSNPKDNRLFRDIMRSCGIRSNIPIVTYCLSQFDYSKGRAHGNYPTIVDALEFSKPEIECLFVDLSRIERIVLIEDKNEARNFLQRNPVNVNMALSLRDRRSGFQLSGGYRLDTVTYQDKIRLKVNSSSDNGTQYLKDLIEQETKELQNIRDRYEEKLSEVRSRLKEIDGRLKSTKNEMRKTNFRMTELKMNVGKVVDTGILNSKINERKNQEQAIASYEAAKEELGLKIEQIAQEAQPIKEQYDSTKLALVEAQDELQQLKEDINSRQSKIQKYKDDTIYYEDKKKVYLENIKKIEVNVAALKEGIQRQIQNACAFCSKERIENVDLPDTQEEIKRELDKVSRMIQKAEKSLGLSQEEVIALFEKCRNKYKEGQKKYMEIDEALNRLHNSLKARDQNYKNAEKG
As to B2, the binding entry in assay [2] is on record as “binds”.

B3: Smc6 HS (hinge short; Smc6 residues 486-to-732) (domain or fragment, UniProt Q12749 486-732)
chain: SRSIQNKKVELQNIAKGNDTFLMNFDRNMDRLLRTIEQRKNEFETPAIGPLGSLVTIRKGFEKWTRSIQRAISSSLNAFVVSNPKDNRLFRDIMRSCGIRSNIPIVTYCLSQFDYSKGRAHGNYPTIVDALEFSKPEIECLFVDLSRIERIVLIEDKNEARNFLQRNPVNVNMALSLRDRRSGFQLSGGYRLDTVTYQDKIRLKVNSSSDNGTQYLKDLIEQETKELQNIRDRYEEKLSEVRSRLKE
On to B3, for which the binding result in assay [3] is listed as “binds”.
